{
  "source": "patent US20110086886A2",
  "about": "“INSECTICIDAL ISOXAZOLINES” (Bayer CropScience AG, priority 2006, published 2011)",
  "key": {"Tetranychus urticae": {"tested_on": "Tetranychus urticae", "assay": "Test for Tetranychus urticae (spray test)", "type": "in vivo", "conditions": "effective component concentration of 100 ppm, adults on bean leaves, after 7 days"}, "[1]": {"tested_on": "Rhipicephalus (Boophilus) microplus", "assay": "Rhipicephalus (Boophilus) microplus; injection", "type": "in vivo", "conditions": "20 μg/tick, after 7 days"}},
  "note": "Some results were stated once for a whole list of compounds, not compound by compound.",
  "data": [
    {"compound": "N#Cc1cc(C2=NOC(c3cc(Cl)cc(Cl)c3)(C(F)(F)F)C2)ccc1-n1cncn1", "note": "(stereo not drawn) [Compound 101, 5-[5-(3,5-dichlorophenyl)-5-(trifluoromethyl)-4,5-dihydroisoxazol-3-yl)-2-(1H-1,2,4-triazol-1-yl)benzonitrile]", "values": [
      {"measurement": "acaricidal ratio", "setting": "Tetranychus urticae", "value": "≥ 98", "unit": "%"}
    ]},
    {"compound": "O=[N+]([O-])c1cc(C2=NOC(c3cc(Cl)cc(Cl)c3)(C(F)(F)F)C2)ccc1-n1cncn1", "note": "(stereo not drawn) [Compound 104, 1-{4-[5-[3,5-dichlorophenyl]-5-(trifluoromethyl)-4,5-dihydroisoxazol-3-yl]-2-nitrophenyl}-1H-1,2,4-triazole]", "values": [
      {"measurement": "acaricidal ratio", "setting": "Tetranychus urticae", "value": "≥ 98", "unit": "%"}
    ]},
    {"compound": "N#Cc1cc(C2=NOC(c3cc(Cl)cc(Cl)c3)(C(F)(F)F)C2)ccc1-n1cc(Cl)cn1", "note": "(stereo not drawn) [Compound 17]", "values": [
      {"measurement": "activity (no deposit of fertile eggs)", "setting": "[1]", "value": "> 90", "unit": "%"}
    ]}
  ]
}
